The list shows a part of the results. Repeats are few or missing, and single values can be far off.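 The apoptosis fraction was the count of cleaved-PARP antibody-stained nuclei relative to all DNA-stained nuclei, imaged in 1,536-well plates. Screening doses were set so most cells survived, and baseline and induced cleaved-PARP levels vary greatly across cell lines.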

The first experiment relates to WM1745. Description: cleaved PARP positive nuclei fraction relative to DMSO control; melanoma cells; higher = more apoptosis. The note with it: library dose: low library concentration; 72 h.
As to `CC[C@]1(O)C[C@H]2CN(CCc3c([nH]c4ccccc34)[C@@](C(=O)OC)(c3cc4c(cc3OC)N(C=O)[C@H]3[C@@](O)(C(=O)OC)[C@H](OC(C)=O)[C@]5(CC)C=CCN6CC[C@]43[C@@H]65)C2)C1` [vincristine] + C#Cc1cccc(Nc2ncnc3cc(OCCOC)c(OCCOC)cc23)c1 [erlotinib] (first compound 0.0001 µM, partner dose 0.8 µM), the “cleaved PARP positive nuclei fraction” value was determined as 157%.
Turning to `N#CC[C@H](C1CCCC1)n1cc(-c2ncnc3[nH]ccc23)cn1` [ruxolitinib] + O=C(O)[C@@H]1[O][Sb](=[O])([O][Sb]2(=[O])[O][C@H]([C@H](O)CO)[C@H](O)[C@H](C(=O)O)[O]2)[O][C@H]([C@H](O)CO)[C@@H]1O [stibogluconate] (first compound 1 µM, partner dose 2 µM), the “cleaved PARP positive nuclei fraction” value amounted to 96.4%.
Same read-out and setting: to `Cc1cn(-c2cc(NC(=O)c3ccc(C)c(Nc4nccc(-c5cccnc5)n4)c3)cc(C(F)(F)F)c2)cn1` [nilotinib] + CC(=O)O[C@@]12CO[C@@H]1C[C@H](O)[C@@]1(C)C(=O)[C@H](O)C3=C(C)[C@@H](OC(=O)[C@H](O)[C@@H](NC(=O)OC(C)(C)C)c4ccccc4)C[C@@](O)([C@@H](OC(=O)c4ccccc4)[C@H]21)C3(C)C [Docetaxel] (first compound 0.2 µM, partner dose 0.0001 µM) belongs 157%; to `COc1cc([C@@H]2c3cc4c(cc3[C@@H](O[C@@H]3O[C@@H]5CO[C@@H](C)O[C@H]5[C@H](O)[C@H]3O)[C@H]3COC(=O)[C@H]23)OCO4)cc(OC)c1O` [etoposide] + Cc1nc(Nc2ncc(C(=O)Nc3c(C)cccc3Cl)s2)cc(N2CCN(CCO)CC2)n1 [dasatanib] (first compound 0.02 µM, partner dose 0.004 µM), 151%; to `CC[C@]1(O)C[C@H]2CN(CCc3c([nH]c4ccccc34)[C@@](C(=O)OC)(c3cc4c(cc3OC)N(C=O)[C@H]3[C@@](O)(C(=O)OC)[C@H](OC(C)=O)[C@]5(CC)C=CCN6CC[C@]43[C@@H]65)C2)C1` [vincristine] + Cc1ccc(Nc2nccc(N(C)c3ccc4c(C)n(C)nc4c3)n2)cc1S(N)(=O)=O [Pazopanib] (first compound 0.0001 µM, partner dose 0.4 µM), 107%.
The same measure, in the same setting: then `O=C(/C=C/c1cccnc1)NCCCCC1CCN(C(=O)c2ccccc2)CC1` + Cn1c(=O)n(-c2ccc(C(C)(C)C#N)cc2)c2c3cc(-c4cnc5ccccc5c4)ccc3ncc21 [NVP-BEZ235] (first compound 0.01 µM, partner dose 0.004 µM), with 109%; and `O=C(/C=C/c1cccnc1)NCCCCC1CCN(C(=O)c2ccccc2)CC1` + Cc1cn(-c2cc(NC(=O)c3ccc(C)c(Nc4nccc(-c5cccnc5)n4)c3)cc(C(F)(F)F)c2)cn1 [nilotinib] (first compound 0.01 µM, partner dose 0.2 µM), with 102%.
On the same count and under the same terms, then `O=C(/C=C/c1cccnc1)NCCCCC1CCN(C(=O)c2ccccc2)CC1` + COCC[n+]1c2c(n(Cc3cnccn3)c1C)C(=O)c1ccccc1C2=O [YM155] (first compound 0.01 µM, partner dose 0.0004 µM), with 100%; and `COc1cc([C@@H]2c3cc4c(cc3[C@@H](O[C@@H]3O[C@@H]5CO[C@@H](C)O[C@H]5[C@H](O)[C@H]3O)[C@H]3COC(=O)[C@H]23)OCO4)cc(OC)c1O` [etoposide] + O=c1[nH]nc(Sc2ncc([N+](=O)[O-])s2)n1-c1ccc2c(c1)OCCO2 [BI78D3] (first compound 0.02 µM, partner dose 0.2 µM), with 109%; and `Cc1cc(Nc2cc(N3CCN(C)CC3)nc(Sc3ccc(NC(=O)C4CC4)cc3)n2)n[nH]1` [Tozasertib] + C[C@@H](Oc1cc(-c2cnn(C3CCNCC3)c2)cnc1N)c1c(Cl)ccc(F)c1Cl [Crizotinib] (first compound 0.006 µM, partner dose 0.2 µM), with 107%.
With `O=C(Nc1cc(C(F)(F)F)cc(C(F)(F)F)c1)c1cc(Cl)ccc1O` + COCC[n+]1c2c(n(Cc3cnccn3)c1C)C(=O)c1ccccc1C2=O [YM155] (first compound 0.016 µM, partner dose 0.0004 µM), the “cleaved PARP positive nuclei fraction” value turned out to be 92.2%.
Take `O=c1[nH]nc(Sc2ncc([N+](=O)[O-])s2)n1-c1ccc2c(c1)OCCO2` + CCCCCCCCc1ccc(CCC(N)(CO)CO)cc1 [fingolimod] (first compound 0.2 µM, partner dose 2 µM): the “cleaved PARP positive nuclei fraction” value amounted to 96.7%.

In a further experiment the test system is WM3526. Described as above. The note with it: library dose: low library concentration; 72 h.
With `Cc1cn(-c2cc(NC(=O)c3ccc(C)c(Nc4nccc(-c5cccnc5)n4)c3)cc(C(F)(F)F)c2)cn1` [nilotinib] + NC(=O)c1ccc(N(C(N)=O)c2c(F)cccc2F)nc1-c1ccc(F)cc1F [VX702] (first compound 0.2 µM, partner dose 0.4 µM), the “cleaved PARP positive nuclei fraction” value turned out to be 175%.
As to `CC[C@]1(O)C[C@H]2CN(CCc3c([nH]c4ccccc34)[C@@](C(=O)OC)(c3cc4c(cc3OC)N(C=O)[C@H]3[C@@](O)(C(=O)OC)[C@H](OC(C)=O)[C@]5(CC)C=CCN6CC[C@]43[C@@H]65)C2)C1` [vincristine] + C[C@@H](N)c1ccc(C(=O)Nc2ccnc3[nH]ccc23)cc1 [RKI983] (first compound 0.0001 µM, partner dose 0.4 µM), the “cleaved PARP positive nuclei fraction” value came to 58.1%.
Still for that read-out and setting: to `Cc1cn(-c2cc(NC(=O)c3ccc(C)c(Nc4nccc(-c5cccnc5)n4)c3)cc(C(F)(F)F)c2)cn1` [nilotinib] + CC(C)C[C@H](NC(=O)[C@H](Cc1ccccc1)NC(=O)c1cnccn1)B(O)O [Bortezomib] (first compound 0.2 µM, partner dose 0.001 µM) belongs 64%; to `O=C(Nc1cc(C(F)(F)F)cc(C(F)(F)F)c1)c1cc(Cl)ccc1O` + CC(=O)c1c(C)c2cnc(Nc3ccc(N4CCNCC4)cn3)nc2n(C2CCCC2)c1=O [palbociclib] (first compound 0.016 µM, partner dose 0.04 µM), 84.9%.
The same measure, in the same setting: to `O=C(Nc1cc(C(F)(F)F)cc(C(F)(F)F)c1)c1cc(Cl)ccc1O` + OCc1c[nH]c2ccccc12 [Indole-3-carbinol] (first compound 0.016 µM, partner dose 0.8 µM) belongs 59.3%; to `COc1cc([C@@H]2c3cc4c(cc3[C@@H](O[C@@H]3O[C@@H]5CO[C@@H](C)O[C@H]5[C@H](O)[C@H]3O)[C@H]3COC(=O)[C@H]23)OCO4)cc(OC)c1O` [etoposide] + CS(=O)(=O)CCNCc1ccc(-c2ccc3ncnc(Nc4ccc(OCc5cccc(F)c5)c(Cl)c4)c3c2)o1 [lapatinib] (first compound 0.02 µM, partner dose 0.8 µM), 49.5%.
The same measure, in the same setting: to `CCCCCCCCCCCCCCCCCCOP(=O)([O-])OC1CC[N+](C)(C)CC1` [Perifosine] + NC1(c2ccc(-c3nc4ccn5c(=O)[nH]nc5c4cc3-c3ccccc3)cc2)CCC1 [MK2206] (first compound 0.4 µM, partner dose 0.4 µM) belongs 29.7%.
Consider `N#CC[C@H](C1CCCC1)n1cc(-c2ncnc3[nH]ccc23)cn1` [ruxolitinib] + COc1ccc(Cl)c(Nc2nc3ccccc3nc2NS(=O)(=O)c2cccc(NC(=O)C(C)(C)N)c2)c1 [XL147] (first compound 1 µM, partner dose 0.8 µM), for which the “cleaved PARP positive nuclei fraction” value was 190%.
Still for that read-out and setting: to `O=C(Nc1cc(C(F)(F)F)cc(C(F)(F)F)c1)c1cc(Cl)ccc1O` + COc1ccc(C2=N[C@@H](c3ccc(Cl)cc3)[C@@H](c3ccc(Cl)cc3)N2C(=O)N2CCNC(=O)C2)c(OC(C)C)c1 [Nutlin-3] (first compound 0.016 µM, partner dose 0.1 µM) belongs 69.5%.
The same measure, in the same setting: then `Cc1cc(Nc2cc(N3CCN(C)CC3)nc(Sc3ccc(NC(=O)C4CC4)cc3)n2)n[nH]1` [Tozasertib] + CC[C@]1(O)C[C@H]2CN(CCc3c([nH]c4ccccc34)[C@@](C(=O)OC)(c3cc4c(cc3OC)N(C=O)[C@H]3[C@@](O)(C(=O)OC)[C@H](OC(C)=O)[C@]5(CC)C=CCN6CC[C@]43[C@@H]65)C2)C1 [vincristine] (first compound 0.006 µM, partner dose 0.0001 µM), with 57.7%; and `CC[C@]1(O)C[C@H]2CN(CCc3c([nH]c4ccccc34)[C@@](C(=O)OC)(c3cc4c(cc3OC)N(C=O)[C@H]3[C@@](O)(C(=O)OC)[C@H](OC(C)=O)[C@]5(CC)C=CCN6CC[C@]43[C@@H]65)C2)C1` [vincristine] + COc1ccc(Cl)c(Nc2nc3ccccc3nc2NS(=O)(=O)c2cccc(NC(=O)C(C)(C)N)c2)c1 [XL147] (first compound 0.0001 µM, partner dose 0.8 µM), with 92.1%; and `Cc1cn(-c2cc(NC(=O)c3ccc(C)c(Nc4nccc(-c5cccnc5)n4)c3)cc(C(F)(F)F)c2)cn1` [nilotinib] + COc1ccc(Cl)c(Nc2nc3ccccc3nc2NS(=O)(=O)c2cccc(NC(=O)C(C)(C)N)c2)c1 [XL147] (first compound 0.2 µM, partner dose 0.8 µM), with 34.6%.
On the same count and under the same terms, to `Cc1cc(Nc2cc(N3CCN(C)CC3)nc(Sc3ccc(NC(=O)C4CC4)cc3)n2)n[nH]1` [Tozasertib] + Nc1nc(F)nc2c1ncn2[C@@H]1O[C@H](CO)[C@@H](O)[C@@H]1O [fludarabine] (first compound 0.006 µM, partner dose 0.2 µM) belongs 545%.
On to `O=C(/C=C/c1cccnc1)NCCCCC1CCN(C(=O)c2ccccc2)CC1` + CCCS(=O)(=O)Nc1ccc(F)c(C(=O)c2c[nH]c3ncc(Cl)cc23)c1F [PLX4720] (first compound 0.01 µM, partner dose 0.08 µM), for which the “cleaved PARP positive nuclei fraction” value is 76.3%.

Source of the values: the supplement of paper PMC4604168 (melanoma cell lines).
